Literature values, collected in patent US9360484B2, “Anti-FcRH5 antibodies and immunoconjugates and methods of use” (Genentech, Inc., priority 2009, dated 2016).
Some entries share one result that the patent states for a list of compounds. For at least one compound, name, drawing or mass did not settle the structure. Non-standard residues stand in square brackets, D forms with d. Residues, ends and D or L forms follow the SMILES beside them. *: point of attachment. Dolaproine = CO[C@@H]([C@@H]1CCCN1)[C@@H](C)C(=O)O; Dil = CC[C@H](C)[C@H](NC)[C@@H](CC(=O)O)OC; X1 = C[C@@H](N*)[C@@H](O)c1ccccc1; NMeV = CN[C@H](C(=O)O)C(C)C

Conditions: cited from earlier work

| SMILES | cytotoxicity relative to the vinca alkaloid mitotic inhibitors used in chemotherapeutic treatments of NHLs |
| --- | --- |
| COc1cc2cc(c1Cl)N(C)C(=O)C[C@H](OC(=O)[C@H](C)N(C)C(=O)CCC(C)(C)S)[C@]1(C)O[C@H]1[C@H](C)[C@@H]1C[C@@](O)(NC(=O)O1)[C@H](OC)/C=C/C=C(\C)C2 [DM4, N(2′)-deacetyl-N2-(4-mercapto-4-methyl-1-oxopentyl)-maytansine] | at least 100 fold |
| CC[C@H](C)[C@@H]([C@@H](CC(=O)N1CCC[C@H]1[C@H](OC)[C@@H](C)C(=O)N[C@H](C)[C@@H](O)c1ccccc1)OC)N(C)C(=O)[C@@H](NC(=O)[C@@H](NC)C(C)C)C(C)C [MMAE, mono-methyl auristatin E] (H-[NMeV]V[Dil][Dolaproine]-X1) | at least 100 fold |
| COc1cc2cc(c1Cl)N(C)C(=O)C[C@H](OC(=O)[C@H](C)N(C)C(=O)CCS)[C@]1(C)O[C@H]1[C@H](C)[C@@H]1C[C@@](O)(NC(=O)O1)[C@H](OC)/C=C/C=C(\C)C2 [DM1, N(2′)-deacetyl-N(2′)-(3-mercapto-1-oxopropyl)-maytansine] | at least 100 fold |
